Results reported in patent publication US20110230477A1, “COMPOUNDS, PHARMACEUTICAL COMPOSITION AND METHODS FOR USE IN TREATING METABOLIC DISORDERS” (Euroscreen S.A., priority 2008, published 2011).
Entries after “also recorded” stand apart in the source; their conditions may differ. At least one structure is not confirmed: it was looked up by name or label, or the drawing left a doubt.

Columns and labels:
[1] = tested on: adipocytes isolated from normal rats; assay: Lipolysis assay in isolated adipocytes (normal rats); assay type: cell-based; conditions: adipocytes isolated from normal rats (FIGS. 6 and 7)
Procedure: Isolated adipocytes were diluted to 5% in KRH-buffer and were pre-treated with compound of the invention (30 μM, 10 μM and 1 μM) for 30 min at 37° C./120 rpm. After the pre-treatment, Isoprenaline (1 μM) was added to the adipocytes followed by 30 min incubation at 37° C./150 rpm. The reactions were put on ice and the buffer was assayed spectrophotometrically for the production of […] from glycerol breakdown in reactions catalyzed by glycerol kinase and glycerol-3-phosphate dehydrogenase and/or Non Esterified Fatty Acid (NEFA). Each data point was investigated in triplicates in two independent experiments.

[2] = tested on: normal diet fed mice; assay: In vivo assay of anti-lipolytic activity in rodent model (plasma FFA)
Procedure: Male C57BL/6N wild-type are housed one per cage in a room maintained on a 12 h light/dark cycle under constant temperature (22-25° C.) with ad libitum access to food and water. The anti-lipolytic effects of the compounds of the invention are studied in awake mice. Animals are fasted overnight before experimental use. On the day of the experiment, animals are put in metabolic cages and left undisturbed to acclimate to the environment for 1-2 h. blood samples are taken at indicated time points from the intraorbital retrobulbar plexus. A 1% sodium citrate saline solution is used to flush the lines. A pre-treatment blood sample is obtained from each animal to determine baseline values for free fatty acids (FFA) and triglycerides (TG). Compounds of the invention are given via oral gavage, sc injection, iv injection or ip injection for each different series of experiments. Blood samples are collected into pre-cooled tubes pre-coated with heparin (200 μl blood, Li-heparin, Sarstedt) for determination triglycerides and glycerol and in tri-potassium EDTA added sodium fluoride (200 μl blood, K3-EDTA, 1.6 mg/mL+1% NaF, Sarstedt) for determination of plasma free fatty acids. The tubes are placed on wet ice pending processing. Blood samples will be centrifuged at 4000×g, at 4° C., 15 min the resulting plasma will be transferred into non-coated tubes and stored at −80° C. until analyses. The plasma is thawed at 4° C. for determinations of FFA and TG using commercial kits (Wako Chemicals).

[3] = tested on: 3T3-L1 adipocyte cells; assay: Glucose uptake in 3T3-L1 cell line; assay type: cell-based; conditions: 3T3-L1 adipocytes, in response to 10 nM of insulin (FIG. 1)
[4] = tested on: adipocytes isolated from High-fat diet fed mice; assay: Glucose uptake assay in isolated adipocytes (high-fat diet fed mice); assay type: cell-based; conditions: adipocytes isolated from High-fat diet fed mice (FIG. 2)
[5] = tested on: adipocytes from high-fat diet fed mice; assay: Lipolysis assay in isolated adipocytes (high-fat diet fed mice); assay type: cell-based; conditions: adipocytes from high-fat diet fed mice (FIG. 3)
[6] = ip injection, 15 mg/kg, 15 minutes following the injection, vs vehicle (FIGS. 4 and 5), 15 mg/kg

| Structure (SMILES) | isoprenaline-induced lipolysis [1] | in vivo FFA baseline [2, 6] | also measured |
| --- | --- | --- | --- |
| CN(C(=O)[C@@H](CC(=O)O)Cc1ccccc1)c1nc(-c2ccccc2Cl)cs1 [Compound 14, (R)-3-benzyl-4-((4-(2-chlorophenyl)thiazol-2-yl)(methyl)amino)-4-oxobutanoic acid] | inhibit | – | in vivo FFA baseline ([2]; orally administered, 50mg/kg, 15 minutes following the dosing, vs vehicle (FIG. 8), 50 mg/kg): inhibition; also recorded: inhibit |
| O=C(O)C[C@H](C(=O)Nc1nc(-c2ccccc2Cl)cs1)c1ccccc1 [Compound 9, (S)-4-(4-(2-chlorophenyl)thiazol-2-ylamino)-4-oxo-3-phenylbutanoic acid] | – | inhibition; also recorded: inhibit | glucose-uptake [3]: significantly increases; glucose uptake [4]: significantly increase; isoprenaline-induced lipolysis [5]: dose-dependently inhibits |
| O=C(O)C[C@@H](Cc1ccccc1)C(=O)N(c1nc(-c2cc(Cl)ccc2Cl)cs1)C1CC1 [Compound 142, (R)-3-benzyl-4-(cyclopropyl(4-(2,5-dichlorophenyl)thiazol-2-yl)amino)-4-oxobutanoic acid] | inhibit | – | – |
| COC(=O)CCN(C(=O)[C@@H](CC(=O)O)Cc1ccccc1)c1nc(-c2ccccc2Cl)cs1 [Compound 126, (R)-3-benzyl-4-((4-(2-chlorophenyl)thiazol-2-yl)(3-methoxy-3-oxopropyl)amino)-4-oxobutanoic acid] | inhibit | – | – |
| CN(C(=O)[C@@H](CC(=O)O)CC1CCCCC1)c1nc(-c2ccccc2Cl)cs1 [Compound 89, (R)-4-((4-(2-chlorophenyl)thiazol-2-yl)(methyl)amino)-3-(cyclohexylmethyl)-4-oxobutanoic acid] | inhibit | – | – |
| O=C(O)C[C@@H](Cc1ccccc1)C(=O)Nc1nc(-c2ccccc2Cl)cs1 [Compound 2, (R)-3-benzyl-4-(4-(2-chlorophenyl)thiazol-2-ylamino)-4-oxobutanoic acid] | – | inhibition; also recorded: inhibit | – |
